PubChem BioAssay AID588499 (NMMLSC, 2011)
In all, about 360,000 compounds went through this assay and about 610 (0.17%) were called active. The inconclusive results got no clear call from the source; some entries with a clear call stand among them for comparison. Cut-off read from the data, not from the text of the source: active = inhibition above about 30%; inconclusive = no clear call, values can overlap the other calls; inactive = below that.

Test system: Botulinum neurotoxin type A light chain protease (Clostridium botulinum A str. ATCC 3502)
Assay: blockers of BoNT/A LC substrate cleavage – biochemical, flow cytometry, MLPCN library, primary screen (AID 588499); note: plate controls were buffer without enzyme for full effect and enzyme alone for no effect
Details: multiplex microsphere protease substrate cleavage, at 10 µM, hits give high values

Row | Structure (SMILES) | inhibition
1 | O=C(O)CC1(CC(=O)Nc2cc(F)ccc2Cl)CCCCC1 | inconclusive: -24.9%
2 | COC(=O)Cc1ccc(NC(=S)NN2CCOCC2)cc1 | inactive: -0.5%
3 | COc1ccc(C2CC(c3cccs3)=NN2C(=O)CSc2nnnn2C)cc1OC (centres undefined) | inactive: 0.6%
4 | C[C@]12c3[nH]c4ccccc4c3CCN1C(=O)C(CC(=O)NCC13CC4CC(CC(C4)C1)C3)C[C@@H]2C(=O)N1CCCCC1 (some centres undefined) | inactive: -0.3%
5 | CCCc1c(O)nc(SCCN(CCC)CCC)[nH]c1=O | inconclusive: -3.8%
6 | COc1ccc(C(=O)N(Cc2ccco2)C(C(=O)NC2CCCC2)c2ccc(O)cc2)cc1OC (centres undefined) | inconclusive: 5.6%
7 | CCN(CC)CCCOc1nc(C)nc2c1oc1ccccc12 | inactive: 0.3%
8 | COc1cc(C(=O)N2CCC(NC(=O)C(Cc3ccccc3C)NC(C)=O)CC2)cc(OC)c1OC (centres undefined) | inconclusive: -0.7%
9 | CCOc1ccc(NC(=O)CN(C)C(=O)c2ccc3c(c2)S(=O)(=O)N=C2CCCCCN23)cc1OCC | active: 93.9%
10 | Fc1ccccc1Oc1nc(-c2ccncc2)nc2ccccc12 | inconclusive: 9.1%
11 | CNC(=S)NNC(=O)c1ccc(C(C)(C)C)cc1 | inconclusive: -11.2%
12 | COC(=O)c1c(NC(=O)c2ccccc2)sc2c1CC(C)(C)OC2 | inconclusive: -1.8%
13 | CC(=O)N1N=C(c2ccc(Br)cc2)OC12CCCC2 | inconclusive: 12.7%
14 | NC(N)=N/N=C/c1ccc(Cl)cc1Cl | inconclusive: 3.3%
15 | O=C(CSc1nnc(COc2ccccc2)n1Cc1ccco1)c1ccc(F)cc1 | inconclusive: 35%
16 | COCCCNC(=O)c1ccc2c(=O)n(CC3CCCO3)c(=S)[nH]c2c1 (centres undefined) | inactive: -0.5%
17 | COc1ccc(CN2CCN(S(=O)(=O)c3ccc(C)cc3)CC2)cc1OC | inconclusive: 22%
18 | Cc1ccc(S(=O)(=O)CC2CSc3nc(N)cc(=O)n32)cc1 (centres undefined) | inconclusive: 2%
19 | Cc1cc2cc(CNC(=O)c3ccc(S(=O)(=O)N4CCOCC4)cc3)ccc2n1C | active: 80.7%
20 | O=C(NCc1ccc(F)cc1)c1cccnc1C(=O)O | inactive: -0.4%
21 | O=C(c1cc(F)ccc1F)C1CCCN(C(=O)c2ccc3nccnc3c2)C1 (centres undefined) | inactive: 4.6%
22 | COCCNC(=O)CSc1nc2cc(OC)c(OC)cc2c(=O)n1Cc1ccco1 | inconclusive: 13.2%
23 | COc1ccccc1N1C(=O)C2C(C(=O)c3ccccc3)=NN(c3ccccc3OC)C2C1=O (centres undefined) | inconclusive: 7.2%
24 | Cc1ccc(NC(=O)C2CCN(S(=O)(=O)c3ccc4c(c3)OCCO4)CC2)c(O)c1 | inactive: -1.1%

Arranged by count of non-hydrogen atoms (rising): some entries from above
Row | Structure (SMILES) | inhibition
7 | CCN(CC)CCCOc1nc(C)nc2c1oc1ccccc12 | inactive: 0.3%
6 | COc1ccc(C(=O)N(Cc2ccco2)C(C(=O)NC2CCCC2)c2ccc(O)cc2)cc1OC (centres undefined) | inconclusive: 5.6%
8 | COc1cc(C(=O)N2CCC(NC(=O)C(Cc3ccccc3C)NC(C)=O)CC2)cc(OC)c1OC (centres undefined) | inconclusive: -0.7%
